The structures given here were assigned with low confidence; some may be wrong.
Assays:
[1] = target: T1, human sphingosine-1-phosphate receptor 1 (S1P1) (Homo sapiens, UniProt P21453); assay: Inhibition of cAMP production (HTRF cAMP HiRange), S1P1 CHO-K1 cells; conditions: for hS1P1 CAMP SPAN: efficacy normalized to maximum efficacy of fingolimod; for hS1P1 CAMP pEC50: potency
[2] = target: T1, human sphingosine-1-phosphate receptor 1 (S1P1); assay: β-Arrestin2 recruitment assay (PathHunter), S1P1 CHO-K1 cells; conditions: for hS1P1 B-arrestin2 SPAN: efficacy normalized to maximum efficacy of fingolimod; for hS1P1 B-arrestin2 pEC50: potency

Sequences of proteins named here, by UniProt entry; tags and fusion partners are left off.
UniProt P21453, whole entry: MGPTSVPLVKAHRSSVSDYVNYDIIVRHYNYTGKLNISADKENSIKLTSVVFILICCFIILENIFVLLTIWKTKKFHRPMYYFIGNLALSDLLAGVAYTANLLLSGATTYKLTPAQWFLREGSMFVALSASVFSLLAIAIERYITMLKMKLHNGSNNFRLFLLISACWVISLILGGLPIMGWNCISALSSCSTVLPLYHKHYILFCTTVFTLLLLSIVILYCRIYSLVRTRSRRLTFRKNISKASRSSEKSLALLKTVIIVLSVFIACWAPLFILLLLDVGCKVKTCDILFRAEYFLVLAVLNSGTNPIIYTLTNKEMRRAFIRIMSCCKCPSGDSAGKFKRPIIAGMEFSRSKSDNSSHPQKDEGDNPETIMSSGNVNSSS
UniProt P32121, whole entry partner: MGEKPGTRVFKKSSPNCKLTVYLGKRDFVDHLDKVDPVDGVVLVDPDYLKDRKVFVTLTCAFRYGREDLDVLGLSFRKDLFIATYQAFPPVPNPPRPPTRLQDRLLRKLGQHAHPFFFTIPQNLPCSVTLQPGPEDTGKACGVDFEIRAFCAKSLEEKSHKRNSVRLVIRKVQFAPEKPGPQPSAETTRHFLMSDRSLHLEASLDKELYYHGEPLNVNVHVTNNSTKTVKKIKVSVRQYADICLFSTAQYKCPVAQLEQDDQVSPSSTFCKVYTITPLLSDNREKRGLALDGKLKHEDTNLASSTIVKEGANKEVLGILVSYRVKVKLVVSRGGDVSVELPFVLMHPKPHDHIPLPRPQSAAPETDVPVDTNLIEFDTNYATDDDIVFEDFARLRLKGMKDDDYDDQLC

Compound | hS1P1 CAMP SPAN [1] | hS1P1 CAMP pEC50 [1] | hS1P1 B-arrestin2 SPAN [2] | hS1P1 B-arrestin2 pEC50 [2]
CCC1(CC)CC(=O)c2cc(-c3nc(-c4ccncc4C)no3)ccc2O1 | >75 | >6.5 | >75 | >5
Cc1ccc(-c2nc(-c3ccc4c(c3)nnn4C(C)C)no2)s1 | <75 | <6.5 | <75 | <5
